{"source": "patent US8921122B2", "about": "“System and method for quantitative assessment of biological migration behavior” (The General Hospital Corporation, priority 2008, dated 2014)", "molecules": {"B1": {"name": "P-selectin: Human recombinant P-selectin, cell adhesion molecule used to coat capture surface (R&D Systems ADP3-050) (protein, UniProt P16109 42-830, looked up)", "P-selectin": "WTYHYSTKAYSWNISRKYCQNRYTDLVAIQNKNEIDYLNKVLPYYSSYYWIGIRKNNKTWTWVGTKKALTNEAENWADNEPNNKRNNEDCVEIYIKSPSAPGKWNDEHCLKKKHALCYTASCQDMSCSKQGECLETIGNYTCSCYPGFYGPECEYVRECGELELPQHVLMNCSHPLGNFSFNSQCSFHCTDGYQVNGPSKLECLASGIWTNKPPQCLAAQCPPLKIPERGNMTCLHSAKAFQHQSSCSFSCEEGFALVGPEVVQCTASGVWTAPAPVCKAVQCQHLEAPSEGTMDCVHPLTAFAYGSSCKFECQPGYRVRGLDMLRCIDSGHWSAPLPTCEAISCEPLESPVHGSMDCSPSLRAFQYDTNCSFRCAEGFMLRGADIVRCDNLGQWTAPAPVCQALQCQDLPVPNEARVNCSHPFGAFRYQSVCSFTCNEGLLLVGASVLQCLATGNWNSVPPECQAIPCTPLLSPQNGTMTCVQPLGSSSYKSTCQFICDEGYSLSGPERLDCTRSGRWTDSPPMCEAIKCPELFAPEQGSLDCSDTRGEFNVGSTCHFSCDNGFKLEGPNNVECTTSGRWSATPPTCKGIASLPTPGVQCPALTTPGQGTMYCRHHPGTFGFNTTCYFGCNAGFTLIGDSTLSCRPSGQWTAVTPACRAVKCSELHVNKPIAMNCSNLWGNFSYGSICSFHCLEGQLLNGSAQTACQENGHWSTTVPTCQAGPLTIQEALTYFGGAVASTIGLIMGGTLLALLRKRFRQKDDGKCPLNPHSHLGTYGVFTNAAFDPSP"}, "B2": {"name": "E-selectin: Human recombinant E-selectin, cell adhesion molecule used to coat capture surface (R&D Systems ADP1-050) (protein, UniProt P16581 22-610, looked up)", "E-selectin": "WSYNTSTEAMTYDEASAYCQQRYTHLVAIQNKEEIEYLNSILSYSPSYYWIGIRKVNNVWVWVGTQKPLTEEAKNWAPGEPNNRQKDEDCVEIYIKREKDVGMWNDERCSKKKLALCYTAACTNTSCSGHGECVETINNYTCKCDPGFSGLKCEQIVNCTALESPEHGSLVCSHPLGNFSYNSSCSISCDRGYLPSSMETMQCMSSGEWSAPIPACNVVECDAVTNPANGFVECFQNPGSFPWNTTCTFDCEEGFELMGAQSLQCTSSGNWDNEKPTCKAVTCRAVRQPQNGSVRCSHSPAGEFTFKSSCNFTCEEGFMLQGPAQVECTTQGQWTQQIPVCEAFQCTALSNPERGYMNCLPSASGSFRYGSSCEFSCEQGFVLKGSKRLQCGPTGEWDNEKPTCEAVRCDAVHQPPKGLVRCAHSPIGEFTYKSSCAFSCEEGFELHGSTQLECTSQGQWTEEVPSCQVVKCSSLAVPGKINMSCSGEPVFGTVCKFACPEGWTLNGSAARTCGATGHWSGLLPTCEAPTESNIPLVAGLSAAGLSLLTLAPFLLWLRKCLRKAKKFVPASSCQSLESDGSYQKPSYIL"}}, "key": {"[1]": {"test_system": "neutrophils", "experiment": "Neutrophil migration assay in chemoattractant gradients (switching gradient device)", "assay_type": "cell-based, human", "details": "25 μg/mL P-selectin surface; 20 nM/450 μm fMLP or 10 nM/450 μm IL-8 gradient; 30 minutes", "protocol": "The gradient generating device used to study cell migration consists of two inlets, one outlet, and a cell loading port. In a similar manner as explained above, the device was primed after functionalizing the channel surface with adhesion molecules. Two syringes were prepared, one with only buffer containing 0.2% HSA while the other also containing the appropriate concentration of chemokine. Two chemoattractants, either recombinant human interleukin-8 (IL8, Catalog #208-IL, R&D Systems inc.) or N-formyl-methionyl-leucyl-phenylalanine (fMLP, Part # F3506, Sigma-Aldrich) were employed at 10 nM and 20 nM concentrations. […]\nFor the neutrophil capture characterization experiments, images for 7-10 sections (each 750 μm long, FIG. 2B) were acquired at 2 s interval using time lapse microscopy and at least 10 frames were captured. This was done to make sure that only adherent neutrophils were counted. […] The neutrophils captured in the chambers were counted manually in 7-10 distinct areas for each concentration. The average number of captured cells was calculated from three repeated experiments for each concentration and CAM. […] Elapsed time and migration distance from the origin in the Y direction were derived for each cell and average displacements were calculated for the entire cell population in consideration. […]"}, "[2]": {"test_system": "neutrophils", "details": "previously shown; P- and E-selectin substrates; cited from earlier work"}}, "note": "Some results were stated once for a whole list of compounds, not compound by compound."}
{"molecule": "CSCC[C@H](NC=O)C(=O)N[C@@H](CC(C)C)C(=O)N[C@@H](Cc1ccccc1)C(=O)O", "note": "[fMLP, N-formyl-methionyl-leucyl-phenylalanine, reference compound]", "values": [{"measurement": "average displacement in the direction of the gradient", "setting": "[1]", "value": "30-40 μm"}]}
{"molecule": "IL-8: recombinant human interleukin-8, chemoattractant (Catalog #208-IL, R&D Systems)", "values": [{"measurement": "average displacement in the direction of the gradient", "setting": "[1]", "value": "30-40 μm"}]}
{"molecule": "B1", "values": [{"measurement": "purity of preferentially captured neutrophils", "setting": "[2]", "value": "90-98%"}]}
{"molecule": "B2", "values": [{"measurement": "purity of preferentially captured neutrophils", "setting": "[2]", "value": "90-98%"}]}
